What all share (assay): SEC; S200 16/60 gel filtration column in 20 mM Hepes pH 7.4, 500 mM NaCl, 0.5 mM TCEP, after Ni2+ IMAC; retention volumes compared with molecular weight standards; both purified
(In gel filtration, larger molecules generally elute earlier.)

The chains behind the UniProt entries cited, without tags or fusion partners. Where a name states a change or a piece, a line headed by the entry shows the natural chain unless it says otherwise. Residues count along the entry.
UniProt P45983, residues 1-363: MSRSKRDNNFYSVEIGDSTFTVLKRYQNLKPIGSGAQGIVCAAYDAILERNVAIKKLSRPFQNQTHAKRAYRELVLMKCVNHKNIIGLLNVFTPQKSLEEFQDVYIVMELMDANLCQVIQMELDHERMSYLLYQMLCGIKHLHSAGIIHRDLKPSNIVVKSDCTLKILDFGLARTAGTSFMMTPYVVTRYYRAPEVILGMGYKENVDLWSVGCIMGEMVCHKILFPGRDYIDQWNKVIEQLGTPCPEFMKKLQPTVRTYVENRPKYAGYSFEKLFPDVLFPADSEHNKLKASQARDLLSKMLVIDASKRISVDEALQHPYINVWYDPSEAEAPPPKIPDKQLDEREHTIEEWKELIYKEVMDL
UniProt O95747, residues 1-309: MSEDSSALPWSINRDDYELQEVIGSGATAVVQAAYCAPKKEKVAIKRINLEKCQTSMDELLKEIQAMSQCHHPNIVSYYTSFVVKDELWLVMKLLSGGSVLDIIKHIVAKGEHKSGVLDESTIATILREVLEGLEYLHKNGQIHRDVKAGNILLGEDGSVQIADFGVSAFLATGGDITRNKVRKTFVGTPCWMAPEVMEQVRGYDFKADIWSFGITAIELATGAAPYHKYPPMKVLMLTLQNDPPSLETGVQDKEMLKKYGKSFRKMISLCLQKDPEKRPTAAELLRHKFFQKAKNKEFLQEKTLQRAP

The target of test [1] is Mitogen-activated protein kinase 8 isoform alpha1 (residues 1-363) (human) (UniProt P45983).
Test [2] addresses Mitogen-activated protein kinase kinase 2 (residues 46-400) (human) (UniProt P36507).
The target in test [3] is Oxidative-stress responsive 1 (residues 1-309) (human) (UniProt O95747).

No constants are given. Whether binding was seen depends on the method and setting.

Take “Mitogen-activated protein kinase 8 isoform alpha1 (residues 1-363) (from UniProt P45983-2 1-363) (domain or fragment)”: the binding entry in test [1] is reported as “no binding”. “Mitogen-activated protein kinase kinase 2 (residues 46-400) (from UniProt P36507 46-400) (domain or fragment)”: the binding result in test [2] is given as “no binding”. Turning to “Oxidative-stress responsive 1 (residues 1-309) (from UniProt O95747 1-309) (domain or fragment)”, the binding result in test [3] is recorded as “no binding”.

Values taken from PMC3445812.
